Literature values as cited in patent US20250339366A1, “AN ORODISPERSIBLE TABLET OF RIVAROXABAN” (INTAS PHARMACEUTICALS LTD., priority 2022, published 2025).
At least one read-out could not be matched to a standard name with certainty.

## O=C(NC[C@H]1CN(c2ccc(N3CCOCC3=O)cc2)C(=O)O1)c1ccc(Cl)s1 [Rivaroxaban, 5-Chloro-N-({(5S)-2-oxo-3-[4-(3-oxo-4-morpholinyl)phenyl]-1,3-oxzolidin-5-yl}methyl)-2-thiophene-carboxamide]
  Permeability: high permeability
